Measured values from US20250092151A1.
Results are given in words; binding and its absence hold for the method and conditions named. Some results given as binding are weak or reduced against the parent protein; the word gives no strength.

Protein sequences, listed by entry. Tags and fused reporters are not part of them. Lines headed by an entry give the natural chain unless they say otherwise; changes in a name come on top.
UniProt Q14242: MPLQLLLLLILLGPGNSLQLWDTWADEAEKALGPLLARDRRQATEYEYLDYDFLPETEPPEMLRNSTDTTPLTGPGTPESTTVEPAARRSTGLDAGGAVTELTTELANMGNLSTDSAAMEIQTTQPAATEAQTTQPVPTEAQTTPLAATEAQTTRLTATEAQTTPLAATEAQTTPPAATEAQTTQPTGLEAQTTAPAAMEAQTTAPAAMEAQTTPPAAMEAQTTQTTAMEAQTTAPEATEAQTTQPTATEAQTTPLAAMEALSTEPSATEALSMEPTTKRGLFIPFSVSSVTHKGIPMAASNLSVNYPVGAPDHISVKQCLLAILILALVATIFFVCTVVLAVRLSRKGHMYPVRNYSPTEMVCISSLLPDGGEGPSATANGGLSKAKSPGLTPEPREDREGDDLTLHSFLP

Target: human P-selectin glycoprotein ligand-1 (PSGL-1), expressed on Sp2/0-hPSGL-1 cells (human) (UniProt Q14242)
Assay: flow cytometry on Sp2/0-hPSGL-1 cells

binding: binds
B1: h15A7H (antibody, IgG4, V domains shown)
VH: EVQLVESGGGLVQPGGSLRLSCAASGFTFSSFGMHWVRQAPGKGLEWVAYINGGSSTIFYANAVKGRFTISRDNAKNTLYLQMNSLRAEDTAVYYCARYASYGGGAMDYWGQGTLVTVSS
VL: DIQMTQSPSSLSASVGDRVTITCRSSQSIVHNDGNTYFEWYQQKPGKAPKLLIYKVSNRFSGVPSRFSGSGSGTHFTLTISSLQPEDFATYYCFQGSYVPLTFGQGTKVEIK
